These are yes or no findings as the source states them, for the method shown. Binding seen in cells or lysates may run through a third protein. Some results given as binding are weak or reduced against the parent protein; the word gives no strength. Sequences can lack the tags named with a protein.
What was measured:
[1] = target: Gαs (endogenous, from HEK 293 cell lysates) (human) (UniProt P63092); experiment: GST pull-down from HEK 293 cell lysates, Western blot for Gαs
[2] = target: Gαs (endogenous, from HEK 293 cell lysates) (human) (UniProt P63092); experiment: GST pull-down from HEK 293 cell lysates

The chains behind the UniProt entries cited, without tags or fusion partners. Residues count along the entry.
UniProt P63092, residues 2-394: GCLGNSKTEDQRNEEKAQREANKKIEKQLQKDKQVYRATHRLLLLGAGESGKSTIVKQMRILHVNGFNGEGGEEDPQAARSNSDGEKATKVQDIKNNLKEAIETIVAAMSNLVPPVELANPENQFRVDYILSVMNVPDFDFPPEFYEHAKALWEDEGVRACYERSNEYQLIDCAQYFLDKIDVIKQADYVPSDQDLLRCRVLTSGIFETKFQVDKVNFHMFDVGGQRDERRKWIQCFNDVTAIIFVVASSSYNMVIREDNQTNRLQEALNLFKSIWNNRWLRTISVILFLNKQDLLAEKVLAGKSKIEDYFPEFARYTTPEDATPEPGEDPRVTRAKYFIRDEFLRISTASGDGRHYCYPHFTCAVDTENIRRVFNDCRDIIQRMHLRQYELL

B1: Glutathione S-transferase (GST)-fused cytoplasmic domain of LRP6 (protein, not shown: a dimerising Fc or GST)
chain: CQRMLCPRMKGDGETMTNDYVVHGPASVPLGYVPHPSSLSGSLPGMSRGKSMISSLSIMGGSSGPPYDRAHVTGASSSSSSSTKGTYFPAILNPPPSPATERSHYTMEFGYSSNSPSTHRSYSYRPYSYRHFAPPTTPCSTDVCDSDYAPSRRMTSVATAKGYTSDLNYDSEPVPPPPTPRSQYLSAEENYESCPPSPYTERSYSHHLYPPPPSPCTDSS
binding [1]: binds
binding [2]: binds
